Experimental data from PMC12894719.
Like-named read-outs stand apart in the source and are kept apart here. These are yes or no findings as the source states them, for the method shown. Binding seen in cells or lysates may run through a third protein. These calls come from enrichment with a bait or labelling near it, and not all partners need be listed. For some of these results: Where a sequence is shown, tags or fusion partners need not be part of it.

By UniProt entry, the sequences of proteins in these tests, tags left out.
UniProt Q14258: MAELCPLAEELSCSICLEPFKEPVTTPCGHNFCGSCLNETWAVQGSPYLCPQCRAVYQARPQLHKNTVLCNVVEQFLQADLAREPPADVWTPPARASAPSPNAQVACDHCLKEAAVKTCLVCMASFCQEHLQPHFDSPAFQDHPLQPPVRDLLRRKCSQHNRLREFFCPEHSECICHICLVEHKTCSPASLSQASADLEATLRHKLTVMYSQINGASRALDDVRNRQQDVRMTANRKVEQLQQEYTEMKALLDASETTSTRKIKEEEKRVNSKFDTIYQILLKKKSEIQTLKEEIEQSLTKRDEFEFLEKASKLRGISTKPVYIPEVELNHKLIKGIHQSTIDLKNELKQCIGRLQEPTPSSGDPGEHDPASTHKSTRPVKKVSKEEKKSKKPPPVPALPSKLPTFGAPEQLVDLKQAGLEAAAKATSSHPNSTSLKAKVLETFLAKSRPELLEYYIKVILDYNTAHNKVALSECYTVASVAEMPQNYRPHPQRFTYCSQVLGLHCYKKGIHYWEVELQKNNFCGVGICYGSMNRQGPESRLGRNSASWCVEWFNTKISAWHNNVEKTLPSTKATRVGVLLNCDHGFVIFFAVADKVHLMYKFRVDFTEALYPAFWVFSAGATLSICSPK
UniProt Q92783: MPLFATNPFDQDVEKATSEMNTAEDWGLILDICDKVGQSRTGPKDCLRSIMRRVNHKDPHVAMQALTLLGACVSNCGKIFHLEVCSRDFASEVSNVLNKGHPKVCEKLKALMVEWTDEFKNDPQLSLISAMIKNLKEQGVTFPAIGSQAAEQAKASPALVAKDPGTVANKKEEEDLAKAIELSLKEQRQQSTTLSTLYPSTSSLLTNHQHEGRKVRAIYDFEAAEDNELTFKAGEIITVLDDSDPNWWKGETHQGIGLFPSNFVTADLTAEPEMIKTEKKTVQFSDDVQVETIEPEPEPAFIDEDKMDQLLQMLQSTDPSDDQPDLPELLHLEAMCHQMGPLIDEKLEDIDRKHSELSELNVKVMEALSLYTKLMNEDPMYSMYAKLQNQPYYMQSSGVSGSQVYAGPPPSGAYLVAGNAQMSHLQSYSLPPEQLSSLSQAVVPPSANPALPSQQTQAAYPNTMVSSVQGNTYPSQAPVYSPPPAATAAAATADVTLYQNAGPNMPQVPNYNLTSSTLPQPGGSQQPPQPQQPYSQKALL
UniProt Q8WUM9: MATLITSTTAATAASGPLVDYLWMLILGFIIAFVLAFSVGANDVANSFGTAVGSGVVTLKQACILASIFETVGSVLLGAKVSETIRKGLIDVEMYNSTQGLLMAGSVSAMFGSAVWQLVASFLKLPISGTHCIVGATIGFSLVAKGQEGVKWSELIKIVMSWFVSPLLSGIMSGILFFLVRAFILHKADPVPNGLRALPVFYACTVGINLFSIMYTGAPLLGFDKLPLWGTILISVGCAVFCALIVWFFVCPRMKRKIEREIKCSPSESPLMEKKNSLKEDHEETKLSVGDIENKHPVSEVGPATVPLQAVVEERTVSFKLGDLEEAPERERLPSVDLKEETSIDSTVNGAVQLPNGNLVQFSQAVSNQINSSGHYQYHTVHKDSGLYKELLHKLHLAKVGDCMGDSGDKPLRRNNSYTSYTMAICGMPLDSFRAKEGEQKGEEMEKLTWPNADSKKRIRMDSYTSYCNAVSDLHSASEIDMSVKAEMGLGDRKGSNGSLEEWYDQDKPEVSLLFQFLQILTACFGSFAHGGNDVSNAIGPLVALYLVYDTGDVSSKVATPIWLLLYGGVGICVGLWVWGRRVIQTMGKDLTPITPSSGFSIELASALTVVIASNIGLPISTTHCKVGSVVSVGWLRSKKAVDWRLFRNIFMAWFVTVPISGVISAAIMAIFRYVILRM
UniProt Q13114: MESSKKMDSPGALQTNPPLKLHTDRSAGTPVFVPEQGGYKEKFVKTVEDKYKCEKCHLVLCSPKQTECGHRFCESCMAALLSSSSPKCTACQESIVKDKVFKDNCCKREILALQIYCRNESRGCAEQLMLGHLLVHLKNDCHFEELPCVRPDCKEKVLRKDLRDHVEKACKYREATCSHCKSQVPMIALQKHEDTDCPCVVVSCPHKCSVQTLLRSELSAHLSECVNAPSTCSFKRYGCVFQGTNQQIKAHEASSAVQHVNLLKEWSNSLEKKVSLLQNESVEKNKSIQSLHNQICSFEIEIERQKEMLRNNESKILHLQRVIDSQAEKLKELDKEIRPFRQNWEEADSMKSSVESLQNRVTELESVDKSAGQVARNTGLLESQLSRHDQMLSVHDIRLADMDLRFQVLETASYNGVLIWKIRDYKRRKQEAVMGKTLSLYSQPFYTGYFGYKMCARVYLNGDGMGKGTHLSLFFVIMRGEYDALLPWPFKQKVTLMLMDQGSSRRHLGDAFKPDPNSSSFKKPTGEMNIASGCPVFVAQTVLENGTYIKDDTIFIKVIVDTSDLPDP
UniProt O14964: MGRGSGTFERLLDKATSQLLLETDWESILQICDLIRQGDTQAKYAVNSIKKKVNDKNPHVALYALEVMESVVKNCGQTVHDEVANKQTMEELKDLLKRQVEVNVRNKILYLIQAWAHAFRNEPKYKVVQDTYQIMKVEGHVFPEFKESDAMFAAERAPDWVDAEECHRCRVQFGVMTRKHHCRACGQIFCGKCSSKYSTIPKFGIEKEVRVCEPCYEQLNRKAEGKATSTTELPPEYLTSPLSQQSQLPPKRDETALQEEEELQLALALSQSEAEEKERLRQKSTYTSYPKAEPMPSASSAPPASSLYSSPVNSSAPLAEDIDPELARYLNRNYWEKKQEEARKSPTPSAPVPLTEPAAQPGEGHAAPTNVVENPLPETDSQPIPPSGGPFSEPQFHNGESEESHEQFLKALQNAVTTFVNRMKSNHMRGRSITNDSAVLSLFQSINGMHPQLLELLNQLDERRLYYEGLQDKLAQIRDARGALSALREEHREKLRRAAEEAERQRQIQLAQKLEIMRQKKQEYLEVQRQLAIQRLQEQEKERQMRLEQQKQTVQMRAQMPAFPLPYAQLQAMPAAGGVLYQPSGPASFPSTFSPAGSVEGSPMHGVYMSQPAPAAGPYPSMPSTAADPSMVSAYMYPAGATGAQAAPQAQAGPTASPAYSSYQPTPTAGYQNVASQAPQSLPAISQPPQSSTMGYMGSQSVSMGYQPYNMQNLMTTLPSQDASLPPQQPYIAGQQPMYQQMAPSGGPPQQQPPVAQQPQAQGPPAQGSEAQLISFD

B1: SNF8 (protein, UniProt Q96H20 1-258)
chain: MHRRGVGAGAIAKKKLAEAKYKERGTVLAEDQLAQMSKQLDMFKTNLEEFASKHKQEIRKNPEFRVQFQDMCATIGVDPLASGKGFWSEMLGVGDFYYELGVQIIEVCLALKHRNGGLITLEELHQQVLKGRGKFAQDVSQDDLIRAIKKLKALGTGFGIIPVGGTYLIQSVPAELNMDHTVVLQLAEKNGYVTVSEIKASLKWETERARQVLEHLLKEGLAWLDLQAPGEAHYWLPALFTDLYSQEITAEEAREALP
B2: PDIA6 (protein, UniProt Q15084 20-440)
chain: LYSSSDDVIELTPSNFNREVIQSDSLWLVEFYAPWCGHCQRLTPEWKKAATALKDVVKVGAVDADKHHSLGGQYGVQGFPTIKIFGSNKNRPEDYQGGRTGEAIVDAALSALRQLVKDRLGGRSGGYSSGKQGRSDSSSKKDVIELTDDSFDKNVLDSEDVWMVEFYAPWCGHCKNLEPEWAAAASEVKEQTKGKVKLAAVDATVNQVLASRYGIRGFPTIKIFQKGESPVDYDGGRTRSDIVSRALDLFSDNAPPPELLEIINEDIAKRTCEEHQLCVVAVLPHILDTGAAGRNSYLEVLLKLADKYKKKMWGWLWTEAGAQSELETALGIGGFGYPAMAAINARKMKFALLKGSFSEQGINEFLRELSFGRGSTAPVGGGAFPTIVEREPWDGRDGELPVEDDIDLSDVELDDLGKDEL
B3: IFNGR1 (protein, UniProt P15260 18-489)
chain: EMGTADLGPSSVPTPTNVTIESYNMNPIVYWEYQIMPQVPVFTVEVKNYGVKNSEWIDACINISHHYCNISDHVGDPSNSLWVRVKARVGQKESAYAKSEEFAVCRDGKIGPPKLDIRKEEKQIMIDIFHPSVFVNGDEQEVDYDPETTCYIRVYNVYVRMNGSEIQYKILTQKEDDCDEIQCQLAIPVSSLNSQYCVSAEGVLHVWGVTTEKSKEVCITIFNSSIKGSLWIPVVAALLLFLVLSLVFICFYIKKINPLKEKSIILPKSLISVVRSATLETKPESKYVSLITSYQPFSLEKEVVCEEPLSPATVPGMHTEDNPGKVEHTEELSSITEVVTTEENIPDVVPGSHLTPIERESSSPLSSNQSEPGSIALNSYHSRNCSESDHSRNGFDTDSSCLESHSSLSDSEFPPNNKGEIKTEGQELITVIKAPTSFGYDKPHVLVDLLVDDSGKESLIGYRPTEDSKEFS
B4: ITM2C (protein, UniProt Q9NQX7 1-267)
chain: MVKISFQPAVAGIKGDKADKASASAPAPASATEILLTPAREEQPPQHRSKRGGSVGGVCYLSMGMVVLLMGLVFASVYIYRYFFLAQLARDNFFRCGVLYEDSLSSQVRTQMELEEDVKIYLDENYERINVPVPQFGGGDPADIIHDFQRGLTAYHDISLDKCYVIELNTTIVLPPRNFWELLMNVKRGTYLPQTYIIQEEMVVTEHVSDKEALGSFIYHLCNGKDTYRLRRRATRRRINKRGAKNCNAIRHFENTFVVETLICGVV
B5: RABEP2 (protein, UniProt Q9H5N1 1-569)
chain: MAAAAPVAADDDERRRRPGAALEDSRSQEGANGEAESGELSRLRAELAGALAEMETMKAVAEVSESTKAEAVAAVQRQCQEEVASLQAILKDSISSYEAQITALKQERQQQQQDCEEKERELGRLKQLLSRAYPLDSLEKQMEKAHEDSEKLREIVLPMEKEIEELKAKLLRAEELIQEIQRRPRHAPSLHGSTELLPLSRDPSPPLEPLEELSGDGGPAAEAFAHNCDDSASISSFSLGGGVGSSSSLPQSRQGLSPEQEETASLVSTGTLVPEGIYLPPPGYQLVPDTQWEQLQTEGRQLQKDLESVSRERDELQEGLRRSNEDCAKQMQVLLAQVQNSEQLLRTLQGTVSQAQERVQLQMAELVTTHKCLHHEVKRLNEENQGLRAEQLPSSAPQGSQQEQGEEESLPSSVPELQQLLCCTRQEARARLQAQEHGAERLRIEIVTLREALEEETVARASLEGQLRVQREETEVLEASLCSLRTEMERVQQEQSKAQLPDLLSEQRAKVLRLQAELETSEQVQRDFVRLSQALQVRLERIRQAETLEQVRSIMDEAPLTDVRDIKDT

Assays:
HA-BirA-TRIM2^WT (human) [1] = target: T1, HA-BirA-TRIM2^WT (human) (UniProt Q9C040); assay: proximity labelling; ubiquitin-specific proximity labelling: HEK 293-T co-transfected with AviTag-Ub and HA-BirA-TRIM2, 100 µM biotin, 0.5 µM Carfilzomib for 5 h; streptavidin pull-down, TMT quantitative MS; enrichment against HA-BirA and HA-BirA-TRIM2 C60S
T1 sequence: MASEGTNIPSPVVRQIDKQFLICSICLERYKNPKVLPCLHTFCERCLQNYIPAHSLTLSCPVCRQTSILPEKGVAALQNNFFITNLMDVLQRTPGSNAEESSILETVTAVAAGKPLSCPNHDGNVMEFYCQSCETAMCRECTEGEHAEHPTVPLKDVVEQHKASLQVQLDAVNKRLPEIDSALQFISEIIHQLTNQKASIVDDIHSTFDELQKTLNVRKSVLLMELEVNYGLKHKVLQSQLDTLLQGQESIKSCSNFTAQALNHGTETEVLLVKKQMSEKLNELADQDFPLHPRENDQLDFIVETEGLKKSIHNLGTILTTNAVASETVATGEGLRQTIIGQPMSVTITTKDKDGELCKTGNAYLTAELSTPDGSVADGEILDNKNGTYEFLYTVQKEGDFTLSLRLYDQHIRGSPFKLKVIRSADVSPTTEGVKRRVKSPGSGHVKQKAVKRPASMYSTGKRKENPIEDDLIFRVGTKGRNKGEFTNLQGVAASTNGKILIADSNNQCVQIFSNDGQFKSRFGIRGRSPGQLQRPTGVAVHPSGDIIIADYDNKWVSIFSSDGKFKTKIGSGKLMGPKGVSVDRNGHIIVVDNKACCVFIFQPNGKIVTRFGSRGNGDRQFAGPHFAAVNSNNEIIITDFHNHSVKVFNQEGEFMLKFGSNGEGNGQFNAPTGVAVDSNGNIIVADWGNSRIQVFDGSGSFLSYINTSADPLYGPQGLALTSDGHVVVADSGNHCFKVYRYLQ

[2] = target: 3x flag-tagged TMEM106B^K3A/K14A (full-length) (human) (UniProt Q9NUM4); assay: affinity purification with mass spectrometry; anti-flag magnetic beads with lysate of HEK 293-T transfected with flag-TMEM106B variants (150 mM NaCl lysis buffer), 16 h at 4 °C, elution with 3X FLAG peptide, quantitative MS; changes relative to WT
[3] = target: 3x flag-tagged TMEM106B^WT (full-length) (human) (UniProt Q9NUM4); assay: as above
HA-BirA-TRIM2^WT (human) [4] = target: T1, HA-BirA-TRIM2^WT (human); assay: proximity labelling; ubiquitin-specific proximity labelling: HEK 293-T co-transfected with AviTag-Ub and HA-BirA-TRIM2, 100 µM biotin, 0.5 µM Carfilzomib for 5 h; streptavidin pull-down, TMT quantitative MS; enrichment against HA-BirA and HA-BirA-TRIM2 C60S; remark: listed apart in the source

Molecule	binding (HA-BirA-TRIM2^WT (human) [1])	binding [2]	binding [3]	binding (HA-BirA-TRIM2^WT (human) [4])
TRIM25 (from UniProt Q14258 1-630)	binds			
ITM2B (from UniProt Q9Y287 1-266)	binds	binds	binds	
STAM (from UniProt Q92783 1-540)	binds			
SLC20A1 (from UniProt Q8WUM9 1-679)	binds			
TRAF3 (from UniProt Q13114 1-568)	binds			
HGS (from UniProt O14964 1-777)	binds			
B1				binds
B2		binds	binds	
B3		binds	binds	
B4		binds	binds	
B5				binds
